Results published in PMC8884900.
Results are given in words; binding and its absence hold for the method and conditions named. In cells and extracts the contact can be indirect. Some binding calls cover weakened binding; strength is not graded here.

The chains behind the UniProt entries cited, without tags or fusion partners. Residues count along the entry.
UniProt P12023, residues 18-770: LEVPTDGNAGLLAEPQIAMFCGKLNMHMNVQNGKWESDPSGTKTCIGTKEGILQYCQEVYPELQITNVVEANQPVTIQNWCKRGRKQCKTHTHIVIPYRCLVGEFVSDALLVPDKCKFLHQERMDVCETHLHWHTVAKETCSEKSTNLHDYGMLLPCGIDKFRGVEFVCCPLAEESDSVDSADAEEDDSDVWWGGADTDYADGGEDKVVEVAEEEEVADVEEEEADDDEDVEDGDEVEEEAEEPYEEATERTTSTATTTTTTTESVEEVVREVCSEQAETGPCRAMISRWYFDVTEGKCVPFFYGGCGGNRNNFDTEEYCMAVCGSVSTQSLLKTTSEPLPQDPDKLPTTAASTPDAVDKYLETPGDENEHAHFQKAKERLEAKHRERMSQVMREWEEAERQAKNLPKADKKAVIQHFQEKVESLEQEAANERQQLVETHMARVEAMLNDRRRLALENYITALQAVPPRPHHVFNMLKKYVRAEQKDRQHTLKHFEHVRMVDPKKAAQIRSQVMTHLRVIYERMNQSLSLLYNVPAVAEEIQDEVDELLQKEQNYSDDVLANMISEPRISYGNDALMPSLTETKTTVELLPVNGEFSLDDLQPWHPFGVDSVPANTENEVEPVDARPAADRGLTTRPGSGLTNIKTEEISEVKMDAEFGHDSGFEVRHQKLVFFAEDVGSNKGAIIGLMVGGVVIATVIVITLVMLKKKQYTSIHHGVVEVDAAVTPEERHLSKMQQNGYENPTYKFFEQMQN

Target: APP (endogenous, mouse cortex) (mouse (endogenous in C57BL/6 cortex)) (UniProt P12023)
Test: co-IP; endogenous proteins in C57BL/6 mouse cortical lysates; rabbit IgG as negative control

- binding: binds
B1: USP25 (endogenous, mouse cortex) (enzyme, UniProt P57080 1-1055)
chain: MTVEQNVLQQSAAQKHQQTFLNQLREITGINDAQILQQALKDSNGNLELAVAFLTAKNAKTPPQEETGYYQTALPGNDRYISVGSQADANVIDLTGDDKDDLQRAIALSLAESNRAFRETGITDEEQAISRVLEASIAENKACLKRTPIEVWRDSRNPYDRKRQEKAPVGLKNVGNTCWFSAVIQSLFNLLEFRRLVLNYKPPSNAQDLPRNQKEHRNLPFMRELRYLFALLVGTKRKYVDPSRAVEILKDAFKSNDSQQQDVSEFTHKLLDWLEDAFQMKAEEETDEEKPKNPMVELFYGRFLAMGVLEGKKFENTEMFGQYPLQVNGFKDLHECLEAAMIEGEIESLHSDNSGKSGQEHWFTELPPVLTFELSRFEFNQALGRPEKIHNKLEFPQVLYLDRYMHRNREITRIKREEIKRLKDYLTVLQQRLERYLSYGSGPKRFPLVDVLQYALEFASSKPVCTSPVDDIDASSSASGPLPSQSLPSTTEQQGPCASDLPGSSSPASGAALPLRSVIHKPFTQSRIPPDLPMHPAPRHITEEELCVLESCLHRWRTEIENDTRDLQESISRIHRTIELMYSDKSMIQVPYRLHAVLVHEGQANAGHYWAYIFDHRESRWMKYNDIAVTKSSWEELVRDSFGGYRNASAYCLMYIDDKAQFLIQEEFNKETGQALVGMETLPPDLRDFVEEDNQRFEKELEEWDTQLAQRSLQEKLLAAPKLREAEASATTAQAGGADYLEQPSRSDLSKHWKEETLRVIAKASHDLEDKGPETVLQSAIKLEYSRLVKLAQEDTPPETDYRLHHVLVYFIQNQAPKKIIEKTLLEQFGDRNLSFDERCHNIMKVAQAKLEMIKPEEVNLEEYEEWHADYKKFRETTMYLITGLENFQRESYIDSLLFLLCAYQNNKELLSKGPYRGHDGELISHYRRECLLKLNEQAAELFESGEDGDVNNGLIIMNEFIVPFLPLLLVDDMEEKDILAVEDMRNRWCSYLGQEMEANLQEKLTDFLPKLLDCSTEIKGFHEPPKLPSYSAHELCERFARIMLSLSRTPADGR
